System: panel of 30 multi-resistant clinical isolates of Gram-positive and Gram-negative bacteria
Test: MIC screening, ranges over the panel of clinical isolates
Type: cell-based
Conditions: RBC EC50 / MIC; for SI against S. aurues, E. faecium and E. coli: multi-resistant clinical isolates, range
Protocol: Working solutions of the test derivatives were prepared with up to 100% DMSO and stored at −20° C. If necessary, the solutions were heated to 40-80° C. before testing to facilitate complete dissolution. Double-distilled water was used in all dilutions prepared. […] A microdilution susceptibility test was used for MIC determination according to Clinical and Laboratory Standards Institute, “Methods for Dilution Antimicrobial Sisceptibility Tests for Bacteria That Graw Aerobically”, Approved Standard M07-A9, edition 2012, with modifications as described by Igumnova et al (Bioorg Med Chem, 2016, 24 (22), 5884-5894).
Briefly, the bacterial inoculum was adjusted to approximately 2.5-3×10^4 cells/mL in Mueller-Hinton broth (MHB, Difco Laboratories, USA), and incubated in a ratio of 1:1 with test derivatives in polystyrene 96-well flat-bottom microplates (NUNC, Roskilde, Denmark). Positive growth control (without test derivatives) and negative control (without bacteria) were included. The reference antibiotic was oxytetracycline hydrochloride (Sigma Aldrich, Saint Louis, Mo., USA). The microplates were incubated in an EnVision microplate reader (Perkin-Elmer, Turku, Finland) placed in an incubator set to 35° C. for 48 h. The MIC value was defined as the lowest concentration of derivative resulting in no bacterial growth as determined by OD600 measurement. All derivatives were tested in three parallels.
The MIC was determined as explained above with some exceptions; working solutions of test derivatives were prepared from concentrated DMSO stocks stored at room temperature, the density of the bacterial inoculum was increased 40× to 1-1.2×10^6 cells/mL, enterococci were incubated in Brain Heart Infusion broth (BHIB, Difco Laboratories, USA), the microplates were incubated for 24 h, and the derivatives were tested in four parallels.

SMILES	SI against S. aurues, E. faecium and E. coli	SI against the multi-resistant clinical isolates of S. aureus
CC(C)(C)c1ccc(CC2(Cc3ccc(C(C)(C)C)cc3)C(=O)N(CCCCNC(=N)N)C(=O)N(CCCCNC(=N)N)C2=O)cc1 [Compound 8(i), 1,1′-(4,4′-(5,5-bis(4-tert-butylbenzyl)-2,4,6-trioxodihydropyrimidine-1,3(2H,4H)-diyl)bis(butane-4,1-diyl))diguanidine]	19-39	
NCCCCN1C(=O)N(CCCCN)C(=O)C(Cc2cc(Br)cc(Br)c2)(Cc2cc(Br)cc(Br)c2)C1=O [7(ii)]	10-21	
N=C(N)NCCCCN1C(=O)N(CCCCNC(=N)N)C(=O)C(Cc2ccc(F)c3ccccc23)(Cc2ccc(F)c3ccccc23)C1=O [8(v), 1,1′-(4,4′-(5,5-bis((4-fluoronaphthalen-1-yl)methyl)-2,4,6-trioxodihydropyrimidine-1,3(2H,4H)-diyl)bis(butane-4,1-diyl))diguanidine]	11-44	44
CC(C)(C)c1ccc(CC2(Cc3ccc(C(C)(C)C)cc3)C(=O)N(CCCCN)C(=O)N(CCCCN)C2=O)cc1 [Compound 7(i), 1,3-bis(4-aminobutyl)-5,5-bis(4-tertbutylbenzyl) pyrimidin-2,4,6(1H,3H,5H)-trione]	18-36	

From US11072588B2, “Barbituric acid derivatives comprising cationic and lipophilic groups” (UNIVERSITETET I TROMSØ—NORGES ARKTISKE UNIVERSITET, priority 2017, dated 2021)
